Experimental data: the supplement of paper PMC8728848
This is one part of the list.

Legend:
Assay in all cases: glycan array binding signal (z-score within array); higher = stronger binding
Conditions in all cases: glycan notation: IUPAC condensed, linker removed
[1] = target: Neu5Gc(a2-8)Neu5Gc(a2-3)Gal(b1-4)GlcNAc(b1-3)Gal(b1-4)GlcNAc
In short: (§1)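 The binding signal is a Z-score computed within each array and averaged over linkers. Arrays of the same protein sequence at different concentrations or buffers were also averaged together. Data originate from 3228 arrays in the Consortium for Functional Glycomics database, kept only where the protein sequence was available.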

[2] = target: Neu5Gc(a2-8)Neu5Gc(a2-6)Gal(b1-4)GlcNAc
In short: as §1

[3] = target: Neu5Gc(b2-6)Gal(b1-4)GlcNAc
In short: as §1

B1: MUB70 (Lactobacillus reuteri) (protein)
chain: CVHVQYIDGETDQMLRQDDLDGYTDETIPYSTAEGIKKFEGDGYELFKDNFPAGEKFDNDDTNDQFYTVIF
glycan array binding signal (z-score) [1]: -0.59 | glycan array binding signal (z-score) [2]: -0.362 | glycan array binding signal (z-score) [3]: 0.109
